Source: PMC4432227
Results are given in words; binding and its absence hold for the method and conditions named. For part of these data: Binding seen in cells or lysates may run through a third protein. Some entries that bind do so weakly or less than the wild type. Where a sequence is shown, tags or fusion partners need not be part of it. Values belong to the binder of their own block, whether it stands above or below them.

Experiments:
[1] = molecular target: Arl8b with C-terminal HA epitope, wild type (UniProt Q9NVJ2); experiment: co-IP; transfected HEK293T cell lysates (20 mM Tris-HCl pH 7.4, 150 mM NaCl, 0.5% NP-40, 1 mM sodium orthovanadate), immunoprecipitated with anti-HA
[2] = molecular target: Arl8b-Q75L with C-terminal HA epitope (UniProt Q9NVJ2); experiment: as above
[3] = molecular target: Arl8b-T34N with C-terminal HA epitope (UniProt Q9NVJ2); experiment: as above
[4] = molecular target: Rab7 (yeast two-hybrid fusion), P51149; experiment: two-hybrid; S. cerevisiae AH109 co-transformants (pGBKT7 and pGADT7), grown at 30°C, replated on non-selection (+HIS) and selection (−HIS) plates; conditions: remark: other sources report otherwise
[5] = molecular target: T1, Arl8b (yeast two-hybrid fusion, Arl8b-pGBKT7), Q9NVJ2; experiment: as above; conditions: remark: other sources report otherwise
T1 chain: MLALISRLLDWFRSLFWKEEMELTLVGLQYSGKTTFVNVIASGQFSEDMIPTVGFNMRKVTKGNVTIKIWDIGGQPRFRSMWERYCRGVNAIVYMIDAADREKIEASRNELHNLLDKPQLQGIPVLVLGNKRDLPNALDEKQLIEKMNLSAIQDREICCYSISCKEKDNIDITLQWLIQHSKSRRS

[6] = molecular target: T2, hVps41 (yeast two-hybrid fusion) (human), P49754; experiment: as above; conditions: remark: other sources report otherwise
T2 chain: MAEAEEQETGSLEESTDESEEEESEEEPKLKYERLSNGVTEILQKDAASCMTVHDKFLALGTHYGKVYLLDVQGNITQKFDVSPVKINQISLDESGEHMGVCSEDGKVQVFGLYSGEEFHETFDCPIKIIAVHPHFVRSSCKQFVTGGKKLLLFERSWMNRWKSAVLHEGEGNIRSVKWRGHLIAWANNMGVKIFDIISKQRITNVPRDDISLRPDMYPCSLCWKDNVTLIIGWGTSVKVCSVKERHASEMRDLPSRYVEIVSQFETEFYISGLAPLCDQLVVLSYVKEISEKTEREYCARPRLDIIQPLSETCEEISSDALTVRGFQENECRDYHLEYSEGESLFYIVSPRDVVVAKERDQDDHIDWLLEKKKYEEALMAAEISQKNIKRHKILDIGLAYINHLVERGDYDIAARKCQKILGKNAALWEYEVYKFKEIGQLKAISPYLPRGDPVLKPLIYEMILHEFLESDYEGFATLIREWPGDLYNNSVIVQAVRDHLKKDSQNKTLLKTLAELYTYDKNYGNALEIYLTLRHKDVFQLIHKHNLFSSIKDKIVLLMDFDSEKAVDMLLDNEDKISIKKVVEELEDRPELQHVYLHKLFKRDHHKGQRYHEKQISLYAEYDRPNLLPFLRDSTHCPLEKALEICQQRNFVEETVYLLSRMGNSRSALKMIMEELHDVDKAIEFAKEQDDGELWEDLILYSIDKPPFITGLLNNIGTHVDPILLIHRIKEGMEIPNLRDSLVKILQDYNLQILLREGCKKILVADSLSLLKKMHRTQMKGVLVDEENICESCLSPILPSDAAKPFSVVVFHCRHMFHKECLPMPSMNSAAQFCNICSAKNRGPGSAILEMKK

- binding [1]: binds
- binding [2]: binds
- binding [3]: no binding
B1: Myc–hVps41 (protein, UniProt P49754 1-854)
chain: T2 chain

- binding [4]: no binding
B2: hVps41 (yeast two-hybrid fusion), P49754 1-854 (protein)
chain: T2 chain

- binding [5]: no binding
- binding [6]: no binding
B3: hVps16 (yeast two-hybrid fusion), Q9H269 1-839 (protein)
chain: MDCYTANWNPLGDSAFYRKYELYSMDWDLKEELRDCLVAAAPYGGPIALLRNPWRKEKAASVRPVLDIYSASGMPLASLLWKSGPVVSLGWSAEEELLCVQEDGAVLVYGLHGDFRRHFSMGNEVLQNRVLDARIFHTEFGSGVAILTGAHRFTLSANVGDLKLRRMPEVPGLQSAPSCWTVLCQDRVAHILLAVGPDLYLLDHAACSAVTPPGLAPGVSSFLQMAVSFTYRHLALFTDTGYIWMGTASLKEKLCEFNCNIRAPPKQMVWCSRPRSKERAVVVAWERRLMVVGDAPESIQFVLDEDSYLVPELDGVRIFSRSTHEFLHEVPAASEEIFKIASMAPGALLLEAQKEYEKESQKADEYLREIQELGQLTQAVQQCIEAAGHEHQPDMQKSLLRAASFGKCFLDRFPPDSFVHMCQDLRVLNAVRDYHIGIPLTYSQYKQLTIQVLLDRLVLRRLYPLAIQICEYLRLPEVQGVSRILAHWACYKVQQKDVSDEDVARAINQKLGDTPGVSYSDIAARAYGCGRTELAIKLLEYEPRSGEQVPLLLKMKRSKLALSKAIESGDTDLVFTVLLHLKNELNRGDFFMTLRNQPMALSLYRQFCKHQELETLKDLYNQDDNHQELGSFHIRASYAAEERIEGRVAALQTAADAFYKAKNEFAAKATEDQMRLLRLQRRLEDELGGQFLDLSLHDTVTTLILGGHNKRAEQLARDFRIPDKRLWWLKLTALADLEDWEELEKFSKSKKSPIGYLPFVEICMKQHNKYEAKKYASRVGPEQKVKALLLVGDVAQAADVAIEHRNEAELSLVLSHCTGATDGATADKIQRARAQAQKK
